# Results of single-concentration screens

Mtb cholesterol medium: 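Growth of Mycobacterium tuberculosis over 4 days (cholesterol / DPPC medium with tyloxapol); the read-out is not stated. Concentration: 50 µM. Direction is inferred from retests: higher values go with more growth inhibition. About 69,000 compounds were tested under these conditions; 0.54% (about 370) showed 50% or more at least once.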
Mtb glucose medium: 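Growth of Mycobacterium tuberculosis over 3 days (7H9 medium with glucose and tyloxapol); the read-out is not stated. Concentration: 50 µM. Direction is inferred from retests: higher values go with more growth inhibition. Size under these conditions: about 69,000 compounds, about 760 of them at 50% or above in at least one test.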

Each number is a percent effect as filed. The controls that fix the scale are not given in the record; negative values are as filed. This is an unselected part of the compounds tested. Two or more numbers in one place are separate tests of the same structure; such repeats can differ widely.

structure | Mtb cholesterol medium | Mtb glucose medium
O=C(NCc1cccs1)C1CN(C(=O)c2cccs2)CC12CCOCC2 (centres undefined) | 12.21 | 1.321
O=C(NCc1cccnc1)Nc1ccn(CC(F)F)n1 | 18.85 | 31.2
COc1cccc(-n2nnc(C(=O)N3CCN(C(C)=O)CC3)c2C)c1 | -8.468 | -35.82
Cc1ccc(-c2cc(CN(CC(N)=O)CC(C)C)on2)cc1 | 13.8 | 11.23 & 17.14
O=C(c1cnc2ccccn12)N1CCCC(c2ccn[nH]2)C1 (centres undefined) | -1.292 | 12.58
Cn1ccnc1CN1CCN(Cc2ccc(C#N)cc2)CC1 | 8.676 | -5.323
Cc1cccc(-c2nc(CN3CCOCS3(=O)=O)c(C)o2)c1 | -8.425 | 3.856 & 6.39
Cc1ccc(OCC(=O)NCC(C)C)nc1 | -7.843 | 25.71
Cc1nccn1CCCn1cncc1-c1ccc2c(c1)CCCN2C.Cl | 19.26 & -0.06633 | -19.77
COCCNc1nc(-n2nc(C)cc2C)nc2sc3c(c12)CCCC3 | -17.43 | -29.64
Cc1ccc(-n2cc(C(=O)N3CCn4c(C)nnc4C3)nn2)cc1 | 6.885 | 16.38
CN(CCCc1nccn1C)C(=O)C1COc2ccccc2C1 (centres undefined) | 8.925 | 6.609
CO[C@@H]1CC[C@@H](NC(=O)c2ccc(OCCN3CCCC3)cc2)[C@H]1O | -1.833 & 9.555 | 6.804
O=C(O)C(F)(F)F.O=C1COC2(CCN(Cc3ccoc3)CC2)CN1 | -25.65 | -6.861
O=C(NCc1ccccc1Cn1cncn1)N1CCCC1 | 2.192 | -7.978 & 0.0626
COc1cccc(C2CCCN2Cc2nc3c(cnn3C)c(=O)[nH]2)c1 (centres undefined) | 12.47 | 13.27
CNc1cncc(C2CCCN2S(=O)(=O)c2ccccc2F)n1 (centres undefined) | -17.67 | -11.13
CC(C)(C)c1nc(CN2CCC(c3nc4cc(Cl)ccc4o3)CC2)no1 | 31.56 | -2.457
Cc1ccc(-c2cc(C(=O)NCCN3CCOCC3)n[nH]2)s1 | -25.67 | -42.44
Cc1nc(N2CCCC2)nc2c1CCN(C(=O)NC1CCCC1)CC2 | 1.271 | -8.429
CCC(CO)N(Cc1cccs1)C(=O)CSC (centres undefined) | 12.18 | -4.37
CC(=O)NC1(C(=O)N2CCCN(c3cccnn3)CC2)CCCCC1 | -4.416 | -2.36
O=C(O)c1cccc(CC2CCN(c3cnccn3)CC2)c1 | 1.219 & -10.53 | -10.8 & -5.64
NC(=O)C(Cc1ccccc1)NS(=O)(=O)Cc1ccccc1Cl (centres undefined) | -45.41 | -64.75
O=C(O)CC(O)(CC(=O)O)C(=O)O.c1ccc(CC2CCN(Cc3ccnc(-c4cccnc4)n3)CC2)cc1 | 12.16 | 20.71
O=C(Nc1cccc2c1CCCC2)C1CCCN1c1nccs1 (centres undefined) | 23.77 | 1.007
CC(C)c1n[nH]c(C(=O)Nc2cc[nH]n2)c1Br | -1.318 | 6.923
COCc1ccccc1NCc1csc(NC(C)=O)n1 | 16.44 | 8.563 & -7.245
CCc1nnc(CN(C)Cc2cccc(C(=O)Nc3ccnn3C)c2)o1 | -6.454 | -8.74
COCCN(Cc1ccco1)Cc1nc(-c2ccccc2)no1 | 2.101 | -7.905 & 12.95
CN1CCN(C(=O)CCC(=O)c2cccs2)Cc2ccccc21 | 0.8856 | 19.08
NS(=O)(=O)CCNC(=O)c1cc2ccccc2nc1N1CCCC1 | -10.52 | -16.65
COCC(NC1CCN(CC(C)C)CC1)c1ccnn1C (centres undefined) | 14.35 | -3.362 & -27.01
Cc1cc(C)nc(Nc2cccc(C3CCCN(S(C)(=O)=O)C3)n2)n1 (centres undefined) | -37.13 | -33.47
O=C(CC1CCCCC1)N1CCOCC1CO (centres undefined) | -4.119 | 2.461
CC(NC(=O)Cn1cccnc1=O)c1ccc(OC(F)(F)F)cc1 (centres undefined) | 2.139 & -30.83 | 9.243
O=C(NCc1ccncc1)N1CCSCC1c1ccc(Cl)cc1 (centres undefined) | 4.936 | -3.76 & -0.005003
Cc1cc(C(=O)N(C)CC(F)(F)C(F)(F)F)ccc1-n1cncn1 | -9.714 | -15.32
COc1ccccc1CN(Cc1cccc(C)c1)C(=O)[C@@H](N)CC(=O)O | 5.347 | -0.3412 & -7.572
c1cncc(-c2ccc3c(c2)CCC32CCNCC2)c1 | 23.37 | 25.51 & 53.06
Cc1cnn(CC2CCCN2C(=O)c2nccnc2N)c1 (centres undefined) | 9.25 | 19.13
COCc1cccc(CNCc2c(C(C)C)nn(C)c2N(C)C)c1 | -10.44 | -7.664
O=C(O)C(F)(F)F.[H][C@]12OCCC[C@]1([H])N(C(=O)c1ccoc1C)C[C@H]2OCc1cccnc1 | 0.3133 | -3.54
NC(=O)c1cccc2nc([C@H]3CCN(Cc4ccccn4)C3)[nH]c12 | 6.938 | 17.47 & 37.26
COc1cccc(C2CCCN2C(=O)CC2=CSC3=NCCCN23)c1 (centres undefined) | 15.42 | -3.95 & -3.934
CCCn1nc2c(cc1=O)CN(Cc1nc(C)c3ccccc3n1)CC2 | -3.873 | -14.89
[H][C@@]12C[C@H](C(=O)NCc3ccccc3)[C@@]([H])(CN(C(=O)NC(C)C)C1)O2 | -25.11 | -24.45
O=C(c1ccc2[nH]nnc2c1)N1CCC(Nc2cccnn2)CC1 | -11.75 | 17.41
CC(C)c1cc(C(=O)N2CC[C@@H](c3ccc4c(c3)OCO4)[C@H](O)C2)[nH]n1 | -6.571 | 12.78
CN(Cc1cnn(C)c1)C(=O)c1ccc(=O)n(C)n1 | -5.406 | -4.659 & 61.36
Cc1nc2ncnn2c(C)c1CCC(=O)Nc1cccn(C)c1=O | -40.04 | -27.16
Nc1cc(C(=O)N2CCOC(Cc3cccc(C(F)(F)F)c3)C2)ccn1 (centres undefined) | 5.235 | 3.93 & 34
Cc1ccsc1-c1cc(C(=O)O)cc(S(=O)(=O)NCc2ccccn2)c1 | -10.76 | -15.05
Cc1noc(Cl)c1CC(=O)NCCOc1ccc(F)cc1F | -23.16 | 6.868
CNC(=O)[C@@H](c1ccccc1)N1CCC[C@H]1C(=O)NCc1ccccn1.Cl.Cl | 14.75 | 15.31 & -2.142
Cc1nc(-c2cn(CCN)nn2)n(-c2ccc3c(c2)CCC3)n1 | -23.81 | 1.451
N#Cc1c(SCCN2CCCCCC2)sc2c(O)cc(O)nc12 | -23.39 | -7.027
[H][C@@]12CCC(=O)N(CCc3ccccc3)[C@]1([H])CCN(c1ncccc1F)C2 | -6.355 | -13.38
COCCC(=O)NC1CCN(CC2(c3cccc(F)c3)CCCC2)CC1.Cl | -1.755 | 0.9619
Cc1cc(NCCNS(C)(=O)=O)nc2cc3c(cc12)CCC3 | 9.516 | 7.818
O=C(NCC1(N2CCOCC2)CCSC1)Nc1ccccn1 (centres undefined) | -11.66 | -27.53 & -3.201
CC(C)c1nn(C)c(N2CCOCC2)c1CNCCC(=O)N(C)C | -15.32 | -21.99

For reference, 4 entries once more:

structure	Mtb cholesterol medium	Mtb glucose medium
Cc1cnn(CC2CCCN2C(=O)c2nccnc2N)c1 (centres undefined)	9.25	19.13
O=C(NCc1cccs1)C1CN(C(=O)c2cccs2)CC12CCOCC2 (centres undefined)	12.21	1.321
[H][C@@]12CCC(=O)N(CCc3ccccc3)[C@]1([H])CCN(c1ncccc1F)C2	-6.355	-13.38
COCCC(=O)NC1CCN(CC2(c3cccc(F)c3)CCCC2)CC1.Cl	-1.755	0.9619

Measurements from “University of Dundee, Small-Polar-MMV Screening Library” (2021), ChEMBL document CHEMBL3988442.